PubChem BioAssay AID504793 | Drosophila RNAi Screening Center, 2011
Purpose: 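Whole-genome screen for parts of the DNA damage checkpoint at G2/M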 (primary screen). System: Drosophila S2R+ cells. Knock-down reagent: long dsRNA against Drosophila genes, about 0.25 µg dsRNA per well. Duration: 4 days of dsRNA, then 4 hours of drug before read-out. Treatment: doxorubicin 0.5 µM for 4 hours to cause double-strand breaks, in cells also given a low, harmless dose of dsRNA against nbs to sensitise the assay. Measurement: 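Per-well count of mitotic cells stained for phospho-histone H3 after doxorubicin exposure, used as mitotic index; counts are raw and not normalised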. Direction: mitotic cells: higher = more cells in mitosis, weaker G2 arrest. Active means: 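a call needs confirmation in secondary tests, with other dsRNAs and a check of mitotic timing without damage, not just a high primary count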. Meaning of the calls: active = confirmed in follow-up tests; inactive = not confirmed.
In all, the deposit lists about 23,000 reagents; shown is a random part of those that have a named target and a result. In the full data, 62 (0.27%) were called active. 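Calls come from follow-up tests whose scores are not deposited, so confirmed genes may have low counts here; counts are not normalised per plate.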 The raw values are shown without normalisation. The numbers tell different reagents against one gene apart. Names joined by + are all predicted targets of the reagent.

target gene,reagent,"mitotic cells, replicate 1",call
wg,1,4,inactive
wg,2,10,inactive
Or47b,1,12,inactive
ATPsynB,1,3,inactive
AstC-R2,1,4,inactive
CkIalpha,1,18,inactive
CkIalpha,2,11,inactive
CkIalpha,3,7,inactive
CkIalpha,4,8,inactive
CR14499 (retired record),1,7,inactive
NfI,1,10,inactive
clu,1,6,inactive
clu,2,8,inactive
TwdlD,1,5,inactive
CG10038,1,9,inactive
AdamTS-B,1,12,inactive
AdamTS-B,2,7,inactive
CG6236,1,5,inactive
CG13794,1,3,inactive
CG13794,2,8,inactive
Rab40,1,17,inactive
esc,1,2,inactive
esc,2,7,inactive
Vhl,1,7,inactive
Vhl,2,6,inactive
Act87E,1,11,inactive
Act87E,2,6,inactive
CG31778,1,9,inactive
CG13698,1,4,inactive
spz3,1,1,inactive
spz3,2,3,inactive
CG10132,1,5,inactive
CG10132,2,4,inactive
Sugb,1,9,inactive
CG6937,1,3,inactive
CG6937,2,5,inactive
nol,1,7,inactive
nol,2,4,inactive
CG14223,1,8,inactive
CG14223,2,5,inactive
PIG-A,1,3,inactive
Plzf,1,7,inactive
CG32191,1,5,inactive
CG13102,1,3,inactive
Ir48c,1,12,inactive
tef,1,10,inactive
tef,2,15,inactive
tef,3,11,inactive
Pof,1,3,inactive
CG18335,1,10,inactive
CG18335,2,9,inactive
CkIIbeta2,1,5,inactive
CG11811,1,4,inactive
CG10494,1,6,inactive
CG10494,2,13,inactive
CG12496,1,8,inactive
CG12496,2,5,inactive
vas (retired record),1,10,inactive
Trs31,1,6,inactive
5-HT2B,1,5,inactive
5-HT2B,2,7,inactive
5-HT2B,3,7,inactive
CG15376 (retired record),1,10,inactive
CG15376 (retired record),2,3,inactive
CG7183,1,5,inactive
Grasp65,1,3,inactive
Grasp65,2,4,inactive
Tsp42Eg,1,9,inactive
dpr9,1,6,inactive
dpr9,2,10,inactive
dpr9,3,5,inactive
dpr9,4,8,inactive
CG31704,1,10,inactive
CG42446 + CG17931,1,3,inactive
CG12589,1,12,inactive
CG44774,1,17,inactive
CG44774,2,4,inactive
CG3285,1,3,inactive
CG15337,1,10,inactive
CG15337,2,11,inactive
eIF4H1,1,10,inactive
dec,1,10,inactive
dec,2,7,inactive
dec,3,6,inactive
wit,1,9,inactive
wit,2,7,inactive
Sik2,1,16,inactive
Arr1,1,5,inactive
CCDC151,1,1,inactive
CCDC151,2,5,inactive
CG8349,1,7,inactive
akirin,1,5,inactive
akirin,2,4,inactive
CAH5,1,4,inactive
CG9168,1,6,inactive
CG9646,1,8,inactive
Lcp65Ag3,1,12,inactive
CG12219,1,7,inactive
CG12219,2,6,inactive
Rim2,1,4,inactive
Rim2,2,1,inactive
Gr85a,1,8,inactive
S1P,1,5,inactive
nes,1,2,inactive
Syx8,1,9,inactive
Syx8,2,11,inactive
Syx8,3,7,inactive
Med,1,5,inactive
CG6432,1,9,inactive
His-Psi:CR31754,1,17,inactive
APP-BP1,1,3,inactive
CG32032,1,6,inactive
gry,1,4,inactive
gry,2,10,inactive
betaNACtes2,1,12,inactive
Mat89Ba,1,5,inactive
Mat89Ba,2,6,inactive
RpS19b,1,11,inactive
CG13309,1,8,inactive
CAHbeta,1,8,inactive
Lsm10,1,4,inactive
Obp28a,1,7,inactive
Obp28a,2,5,inactive
Tapdelta,1,7,inactive
MED7,1,9,inactive
MED7,2,21,inactive
CG3513,1,4,inactive
CoRest,1,7,inactive
CoRest,2,12,inactive
CoRest,3,8,inactive
CoRest,4,5,inactive
hbs,1,4,inactive
CG7702,1,5,inactive
CG7702,2,5,inactive
CG2278,1,8,inactive
UQCR-14 + CG32576,1,3,inactive
CG7329,1,2,inactive
CG7329,2,2,inactive
Pop5,1,1,inactive
frj,1,8,inactive

9 entries from above, reformatted:
{"target gene":"PIG-A","reagent":1,"mitotic cells, replicate 1":3,"call":"inactive"}
{"target gene":"Plzf","reagent":1,"mitotic cells, replicate 1":7,"call":"inactive"}
{"target gene":"CG32191","reagent":1,"mitotic cells, replicate 1":5,"call":"inactive"}
{"target gene":"CG13102","reagent":1,"mitotic cells, replicate 1":3,"call":"inactive"}
{"target gene":"Ir48c","reagent":1,"mitotic cells, replicate 1":12,"call":"inactive"}
{"target gene":"tef","reagent":1,"mitotic cells, replicate 1":10,"call":"inactive"}
{"target gene":"tef","reagent":2,"mitotic cells, replicate 1":15,"call":"inactive"}
{"target gene":"tef","reagent":3,"mitotic cells, replicate 1":11,"call":"inactive"}
{"target gene":"Pof","reagent":1,"mitotic cells, replicate 1":3,"call":"inactive"}
